Test: peptide made by a vendor
Settings: whole synthesis

## Ac-DWFKAFYDKVAEKFKEAF-NH2
  purity (crude or final not stated): 80%

From patent US20090197811A1 (University of Southern California, priority 2007, published 2009)
